Screening data

The results are deposited in PubChem (AID1159506; NCATS, 2015).

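Luminescence from an EWS-FLI1 target-promoter (NR0B1) reporter, set against a CMV-promoter reporter, two days after silencing single genes in TC32 Ewing sarcoma cells. Each siRNA was applied at 20 nM. A z-score of the log NR0B1-over-CMV signal, less the median of siRNAs with the same seed; more negative means a stronger specific loss of the NR0B1 reporter.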

This is part of the screen; most of the strongest results are not listed here. Sequences are the guide (antisense) strand, without overhang.

siRNA: UCAGGCAGUCGAUCAUUCC
target gene: SLC25A18
seed-corrected z-score: -0.4732

siRNA: UUUCGAAAUAGCUUCGAUG
target gene: MICU3
seed-corrected z-score: 0.3015

siRNA: UCAAGUACCAGACAGCUGA
target gene: TMEM38A
seed-corrected z-score: -0.4738

siRNA: UGCUAGUAACUUCAUAUGC
target gene: MMP3
seed-corrected z-score: -0.1095

siRNA: UCUCCUAGCACAGACAGUC
target gene: PDE4D
seed-corrected z-score: -0.2859

siRNA: UCUAAGACCUUUUCAAUAG
target gene: CHD2
seed-corrected z-score: -1.105

siRNA: UUUCAUGUAGUGGUACUCG
target gene: RPP14
seed-corrected z-score: -0.3801

siRNA: UGAGAAUCCUUUCCAACCC
target gene: GSN
seed-corrected z-score: -0.4979

siRNA: UUAGCGGAUCUAAUGAUGU
target gene: C1orf64
seed-corrected z-score: 0.3725

siRNA: AGUUUAAUAACUAAUGUCC
target gene: PCDHA5
seed-corrected z-score: -0.1341

siRNA: UUUGAUAACAACAUAAUUC
target gene: HULC
seed-corrected z-score: 0.1256

siRNA: UAAAUUCCCUGAUUUUGGU
target gene: NEDD9
seed-corrected z-score: -0.06988

siRNA: UGCAAUGACAAUAAUACCG
target gene: UBE2K
seed-corrected z-score: -0.3319

siRNA: UGCUGUAAGACUCAGACGU
target gene: SPP2
seed-corrected z-score: 0.03262

siRNA: UAGCAGGUCAUAAUGGAUG
target gene: ACO2
seed-corrected z-score: 1.017

siRNA: UGUUCCAAAAACUACAUCC
target gene: NHLRC2
seed-corrected z-score: 0.2099

siRNA: AAAGAUCAGUGCGAUGUCC
target gene: PIGK
seed-corrected z-score: -0.3737

siRNA: AGCUUGACCAUUGCAACUG
target gene: TENM3
seed-corrected z-score: -1.683

siRNA: UUCUGAAUCAGGGAGUAGC
target gene: SLC2A7
seed-corrected z-score: -0.2228

siRNA: AAAGCUAUCUCUGUAACGG
target gene: NCOA5
seed-corrected z-score: 0.04085

siRNA: AGGCUUUUCAACGUAGCCU
target gene: LOC729970
seed-corrected z-score: 0.433

siRNA: ACACUGUUUUCUGACUUGC
target gene: FAM90A27P
seed-corrected z-score: 1.112

siRNA: UGUUGACUCACCAAAACGG
target gene: RANBP2
seed-corrected z-score: -0.4116

siRNA: UUGGUGAUGACUUCAGAUG
target gene: PLA2G4F
seed-corrected z-score: 0.07477

siRNA: UGAUAAACAAUCGUCAUCC
target gene: BCL11A
seed-corrected z-score: 0.868

siRNA: UGAUGUAUCCUGUACAGUG
target gene: ARNT2
seed-corrected z-score: -1.475

siRNA: UUUCUGACCAUUUCUGCCC
target gene: FLJ38576
seed-corrected z-score: -0.4822

siRNA: UUGUCAAUCAGGUUGUUCU
target gene: SNPH
seed-corrected z-score: -0.5387

siRNA: AGUCGAAUAAGUGACAAUG
target gene: NBAS
seed-corrected z-score: 0.3856

siRNA: UUCGGUUUUCUGACAGUAC
target gene: DOCK9
seed-corrected z-score: -0.2215

siRNA: UUUGAAAGAACUGAGUGUC
target gene: SPSB4
seed-corrected z-score: 1.572

siRNA: UAAAUAGACAGACAUACCA
target gene: LOC729860
seed-corrected z-score: -0.3042

siRNA: UAUCUUGUUUGCAUGGUGG
target gene: IL9
seed-corrected z-score: 0.3644

siRNA: UUCGAAACUUCUCCGCUGC
target gene: GID8
seed-corrected z-score: -0.02773

siRNA: AUGGGUGUCACAAGAGAGG
target gene: NIPAL1
seed-corrected z-score: -0.6437

siRNA: ACAGCGAUAAUAACCUUGG
target gene: IGSF10
seed-corrected z-score: -0.417

siRNA: UCAAAGUCCUGCAUGAUCC
target gene: DHFRL1
seed-corrected z-score: 0.1121

siRNA: UGUUGAAUUACAUAGAUGG
target gene: LRRC19
seed-corrected z-score: 0.9406

Repeated from the top, 4 entries:

| siRNA | target gene | seed-corrected z-score |
|---|---|---|
| `UCAGGCAGUCGAUCAUUCC` | SLC25A18 | -0.4732 |
| `UUUCGAAAUAGCUUCGAUG` | MICU3 | 0.3015 |
| `UCAAGUACCAGACAGCUGA` | TMEM38A | -0.4738 |
| `UGCUAGUAACUUCAUAUGC` | MMP3 | -0.1095 |